Reference: the supplement of paper PMC8728848
This is one part of the list.

Experiments:
Experiment in all cases: glycan array binding signal (z-score within array); higher = stronger binding
Conditions in all cases: glycan notation: IUPAC condensed, linker removed
[1] = target: Gal3S(b1-4)Glc
Method in brief: (§1)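 Glycan array data came from 3228 arrays in the Consortium for Functional Glycomics database, and only arrays with an available protein sequence were kept. Glycan names were put into IUPAC-condensed notation, and columns mapping to the same glycan were averaged. The binding signal is a within-array Z-score, averaged across arrays of one protein sequence run at different concentrations or buffers and across linkers. A negative Z-score can be read as non-binding.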

[2] = target: Gal3S(b1-4)Glc6S
Method in brief: as §1

[3] = target: Gal3S(b1-4)GlcNAc
Method in brief: as §1

[4] = target: Gal3S(b1-4)[Fuc(a1-3)]Glc6S
Method in brief: as §1

[5] = target: Gal3S(b1-4)[Fuc(a1-3)]GlcNAc
Method in brief: as §1

[6] = target: Gal3S(b1-4)[Fuc(a1-3)]GlcNAc6S
Method in brief: as §1

[7] = target: Gal3S4S(b1-4)GlcNAc
Method in brief: as §1

[8] = target: Gal3S6S(b1-4)GlcNAc
Method in brief: as §1

[9] = target: Gal3S6S(b1-4)GlcNAc6S
Method in brief: as §1

[10] = target: Gal4S(b1-4)GlcNAc
Method in brief: as §1

[11] = target: Gal4S6S(b1-4)GlcNAc
Method in brief: as §1

[12] = target: Gal6P(b1-4)GlcNAc
Method in brief: as §1

[13] = target: Gal6S(b1-3)GlcNAc
Method in brief: as §1

[14] = target: Gal6S(b1-3)GlcNAc6S
Method in brief: as §1

[15] = target: Gal6S(b1-4)Glc
Method in brief: as §1

[16] = target: Gal6S(b1-4)Glc6S
Method in brief: as §1

[17] = target: Gal6S(b1-4)GlcNAc
Method in brief: as §1

[18] = target: Gal6S(b1-4)GlcNAc6S
Method in brief: as §1

[19] = target: GalNAc(a1-3)Gal
Method in brief: as §1

[20] = target: GalNAc(a1-3)GalNAc
Method in brief: as §1

[21] = target: GalNAc(a1-3)GalNAc(b1-3)Gal(a1-4)Gal(b1-4)Glc
Method in brief: as §1

[22] = target: GalNAc(a1-3)GalNAc(b1-3)Gal(a1-4)Gal(b1-4)GlcNAc
Method in brief: as §1

[23] = target: GalNAc(b1-3)Gal
Method in brief: as §1

[24] = target: GalNAc(b1-3)Gal(a1-4)Gal(b1-4)GlcNAc
Method in brief: as §1

[25] = target: GalNAc(b1-3)Gal(a1-4)Gal(b1-4)GlcNAc(b1-3)Gal(b1-4)Glc
Method in brief: as §1

[26] = target: GalNAc(b1-3)Gal(a1-6)Gal(b1-4)Glc
Method in brief: as §1

[27] = target: GalNAc(b1-3)GalNAc
Method in brief: as §1

[28] = target: GalNAc(b1-3)GlcNAc
Method in brief: as §1

[29] = target: GalNAc(b1-4)Gal(b1-4)Glc
Method in brief: as §1

[30] = target: GalNAc(b1-4)GlcNAc
Method in brief: as §1

[31] = target: GalNAc(b1-4)GlcNAc(b1-2)Man
Method in brief: as §1

[32] = target: GalNAc(b1-4)GlcNAc(b1-2)Man(a1-3)[GalNAc(b1-4)GlcNAc(b1-2)Man(a1-6)]Man(b1-4)GlcNAc(b1-4)GlcNAc
Method in brief: as §1

[33] = target: GalNAc(b1-4)GlcNAc(b1-3)GalNAc(b1-4)GlcNAc
Method in brief: as §1

[34] = target: GalNAc(b1-4)GlcNAc6S
Method in brief: as §1

[35] = target: GalNAc(b1-6)GalNAc
Method in brief: as §1

[36] = target: GalNAc3S(b1-4)GlcNAc
Method in brief: as §1

[37] = target: GalNAc3S(b1-4)GlcNAc3S
Method in brief: as §1

B1: PX9961M-bvu-482-23-482 (Bacteroides vulgatus) (protein)
chain: WLDLAPSTQVDTETSINVLSDIEFTLNGIYSTMQSSDAYSGRLVYYGDVTGDDMQAVSSTKRTGNYYRFNFTKDNGPSSHWSYLYSIIQNCNLILMNVDKLSIDEDETEYKNDLKGQALAIRGMALFDLTRIFGYPYLKDNGASLGVPIVKELSTIDSKPARNTVAECYTEIISDLKNSTELLSGDFNKGKVNRWAAMTLLSRVYLYKGEYNEALTMAENAIKGAEKEGYALWTNEEYPTAWGNDASASNPGEILFEIVNLTTDSPGKESMGYLNSYNGYDDMCITCSFYQLLKKDPKDVRLKILSFDKKYYAYVNKYQPQQGENITDANIPLIRLSEAYLNAAEAAVQTGDNAKAVKYLNSIVQRANPENSVEGKTLTLENVLDERRKELVAEGHRMYDVIRNGMTVKRIDVKDSDINKTKHNTAYMEYDWNFHKILLPIPKKEMDANPNMKQNPGYVD
[1]
  glycan array binding signal (z-score): -0.19
[2]
  glycan array binding signal (z-score): 0.344
[3]
  glycan array binding signal (z-score): 0.151
[4]
  glycan array binding signal (z-score): 1.08
[5]
  glycan array binding signal (z-score): 0.751
[6]
  glycan array binding signal (z-score): 0.037
[7]
  glycan array binding signal (z-score): 0.382
[8]
  glycan array binding signal (z-score): 0.337
[9]
  glycan array binding signal (z-score): 0.726
[10]
  glycan array binding signal (z-score): -1.02
[11]
  glycan array binding signal (z-score): -0.475
[12]
  glycan array binding signal (z-score): -0.201
[13]
  glycan array binding signal (z-score): 0.375
[14]
  glycan array binding signal (z-score): 0.068
[15]
  glycan array binding signal (z-score): -0.175
[16]
  glycan array binding signal (z-score): -0.529
[17]
  glycan array binding signal (z-score): 0.962
[18]
  glycan array binding signal (z-score): -0.084
[19]
  glycan array binding signal (z-score): 0.322
[20]
  glycan array binding signal (z-score): 0.474
[21]
  glycan array binding signal (z-score): -0.666
[22]
  glycan array binding signal (z-score): -1.08
[23]
  glycan array binding signal (z-score): -0.595
[24]
  glycan array binding signal (z-score): -0.185
[25]
  glycan array binding signal (z-score): -0.563
[26]
  glycan array binding signal (z-score): -0.694
[27]
  glycan array binding signal (z-score): -0.1
[28]
  glycan array binding signal (z-score): -0.203
[29]
  glycan array binding signal (z-score): -0.195
[30]
  glycan array binding signal (z-score): 0.545
[31]
  glycan array binding signal (z-score): -0.411
[32]
  glycan array binding signal (z-score): 0.193
[33]
  glycan array binding signal (z-score): -0.527
[34]
  glycan array binding signal (z-score): -0.209
[35]
  glycan array binding signal (z-score): -0.01
[36]
  glycan array binding signal (z-score): -0.614
[37]
  glycan array binding signal (z-score): -0.147
